Source: patent publication US10047050B2, “3,4-di-substituted pyridine compound, methods of using and compositions comprising the same” (ARDEA BIOSCIENCES, INC., priority 2011, dated 2018)
Values joined by “and” are separate entries in the source; they are usually repeats but may differ in a detail not shown here. Equal values may be shown once. Further values from the same series stand in other lists.

Tested on: serum uric acid
Assay: Single-dose Phase I clinical trial, serum uric acid (sUA) 0-72 hours post-dose
Format: in vivo, human
Settings: individual subjects 3-8
Protocol: A Phase 1, Randomized, Double-Blind, Placebo-Controlled Study to Evaluate Safety, Tolerability, Pharmacokinetics and Preliminary Food Effect of Single Doses of a URAT1 Inhibitor, in Healthy Adult Male Volunteers.
To assess safety, tolerability, pharmacokinetics and uricosuric effects after oral administration as single doses of a tablet formulation and the effect of food on bioavailability.
Subjects receive a single, oral dose of active or placebo, at the following doses:
Group 4: 20 mg (fasted) [sentinel dosing];
48 subjects in 6 dose groups, 8 subjects/group, are randomized 3:1 to receive active (6/group) or placebo (2/group). All study procedures are the same regardless of whether subject receives active or placebo. The total duration of subject participation, including screening period, is ˜2-4 weeks, and the total volume of blood collected from each subject during the entire study <500 mL, (less than typically collected during a volunteer blood donation).
5 mg and 20 mg, active and placebo, tablets packaged in 35 count HDPE bottles, stored at controlled room temperature (15-30° C.). Placebo tablets are designed to match the active tablets—identical size, form, taste, and color, and containing the same excipients. 2 mg was dosed as an oral solution.
Subjects dosed on the morning of Day 1 with ˜240 mL of room temp water.
Fasted: subjects are dosed after overnight fast >10 hours and remain fasted until >4 hours post-dose.
Fed: subjects fast overnight for >10 hours, then are dosed 30 mins after completing standard moderate fat breakfast (no high fructose corn syrup).
Serum samples are collected at:
PD samples are frozen (−20° C.) and stored; all samples from a given subject assayed in a single analytical run.

[1] = Group 3, 5 mg single oral dose, fed, 12 h post-dose
[2] = Group 3, 5 mg single oral dose, fed, 24 h post-dose
[3] = Group 3, 5 mg single oral dose, fed, 30 h post-dose
[4] = Group 3, 5 mg single oral dose, fed, 36 h post-dose
[5] = Group 4, 20 mg single oral dose, fasted, 0 h (baseline)
[6] = Group 4, 20 mg single oral dose, fasted, 6 h post-dose
[7] = Group 4, 20 mg single oral dose, fasted, 12 h post-dose
[8] = Group 4, 20 mg single oral dose, fasted, 24 h post-dose
[9] = Group 4, 20 mg single oral dose, fasted, 30 h post-dose

With `CC(C)(Sc1ccncc1-c1ccc(C#N)c2ccccc12)C(=O)O` [2-((3-(4-cyanonaphthalen-1-yl)pyridin-4-yl)thio)-2-methylpropanoic acid] the “Absolute sUA concentration” value (Group 1, 2 mg single oral dose, fasted, 0 h (baseline)) was 7.4 mg/dL and 7.3 mg/dL and 6.6 mg/dL and 6.3 mg/dL and 6.2 mg/dL and 5.1 mg/dL, the “Absolute sUA concentration” value (Group 1, 2 mg single oral dose, fasted, 6 h post-dose) was 6.6 mg/dL (2×) and 6.0 mg/dL and 5.9 mg/dL and 5.1 mg/dL and 4.7 mg/dL and the “Absolute sUA concentration” value (Group 1, 2 mg single oral dose, fasted, 12 h post-dose) was 6.4 mg/dL and 6.3 mg/dL and 5.6 mg/dL and 5.5 mg/dL and 4.9 mg/dL and 4.2 mg/dL. The “Absolute sUA concentration” value (Group 1, 2 mg single oral dose, fasted, 24 h post-dose) was 6.8 mg/dL and 6.4 mg/dL and 5.9 mg/dL and 6.2 mg/dL and 5.7 mg/dL and 4.7 mg/dL, the “Absolute sUA concentration” value (Group 1, 2 mg single oral dose, fasted, 30 h post-dose) was 6.5 mg/dL and 6.3 mg/dL and 5.6 mg/dL and 5.7 mg/dL and 5.3 mg/dL and 4.3 mg/dL and the “Absolute sUA concentration” value (Group 1, 2 mg single oral dose, fasted, 36 h post-dose) was 6.3 mg/dL and 6.1 mg/dL and 5.2 mg/dL and 5.3 mg/dL and 4.8 mg/dL and 4.0 mg/dL. For the same compound, the “Absolute sUA concentration” value (Group 1, 2 mg single oral dose, fasted, 48 h post-dose) was 6.8 mg/dL and 6.4 mg/dL and 5.4 mg/dL and 5.8 mg/dL and 5.1 mg/dL and 4.3 mg/dL, the “Absolute sUA concentration” value (Group 1, 2 mg single oral dose, fasted, 54 h post-dose) was 6.5 mg/dL and 5.9 mg/dL and 5.1 mg/dL and 5.2 mg/dL and 4.8 mg/dL and 4.0 mg/dL and the “Absolute sUA concentration” value (Group 1, 2 mg single oral dose, fasted, 60 h post-dose) was 6.6 mg/dL and 5.9 mg/dL and 5.0 mg/dL and 4.9 mg/dL and 4.6 mg/dL and 3.8 mg/dL. The “Absolute sUA concentration” value (Group 1, 2 mg single oral dose, fasted, 72 h post-dose) was 6.5 mg/dL and 6.1 mg/dL and 5.3 mg/dL and 5.8 mg/dL and 5.0 mg/dL and 4.2 mg/dL, the “Absolute sUA concentration” value (Group 2, 5 mg single oral dose, fasted, 0 h (baseline)) was 7.4 mg/dL and 7.2 mg/dL and 6.3 mg/dL and 6.1 mg/dL (2×) and 5.9 mg/dL and the “Absolute sUA concentration” value (Group 2, 5 mg single oral dose, fasted, 6 h post-dose) was 5.6 mg/dL and 6.2 mg/dL and 5.4 mg/dL and 5.3 mg/dL and 4.4 mg/dL and 4.6 mg/dL. The “Absolute sUA concentration” value (Group 2, 5 mg single oral dose, fasted, 12 h post-dose) was 4.7 mg/dL and 6.0 mg/dL and 5.1 mg/dL and 5.3 mg/dL and 3.8 mg/dL and 4.0 mg/dL, the “Absolute sUA concentration” value (Group 2, 5 mg single oral dose, fasted, 24 h post-dose) was 5.5 mg/dL and 6.4 mg/dL and 5.6 mg/dL and 6.1 mg/dL and 4.5 mg/dL and 4.9 mg/dL and the “Absolute sUA concentration” value (Group 2, 5 mg single oral dose, fasted, 30 h post-dose) was 5.2 mg/dL (2×) and 6.0 mg/dL and 5.6 mg/dL and 3.9 mg/dL and 4.2 mg/dL. For the same compound, the “Absolute sUA concentration” value (Group 2, 5 mg single oral dose, fasted, 36 h post-dose) was 5.0 mg/dL and 5.5 mg/dL and 5.4 mg/dL and 5.2 mg/dL and 3.6 mg/dL and 4.0 mg/dL, the “Absolute sUA concentration” value (Group 2, 5 mg single oral dose, fasted, 48 h post-dose) was 5.4 mg/dL (2×) and 6.4 mg/dL and 5.7 mg/dL and 4.2 mg/dL and 4.7 mg/dL and the “Absolute sUA concentration” value (Group 2, 5 mg single oral dose, fasted, 54 h post-dose) was 5.1 mg/dL (2×) and 5.9 mg/dL and 5.3 mg/dL and 4.1 mg/dL and 4.2 mg/dL. The “Absolute sUA concentration” value (Group 2, 5 mg single oral dose, fasted, 60 h post-dose) was 5.3 mg/dL and 5.6 mg/dL and 5.0 mg/dL and 4.8 mg/dL and 4.1 mg/dL and 4.2 mg/dL, the “Absolute sUA concentration” value (Group 2, 5 mg single oral dose, fasted, 72 h post-dose) was 5.8 mg/dL and 6.1 mg/dL and 5.5 mg/dL and 5.3 mg/dL and 4.5 mg/dL (2×) and the “Absolute sUA concentration” value (Group 3, 5 mg single oral dose, fed, 0 h (baseline)) was 6.9 mg/dL and 6.6 mg/dL and 6.5 mg/dL and 6.0 mg/dL and 5.7 mg/dL and 4.0 mg/dL. For the same compound, the “Absolute sUA concentration” value (Group 3, 5 mg single oral dose, fed, 6 h post-dose) was 4.4 mg/dL (2×) and 4.5 mg/dL (2×) and 2.8 mg/dL, the “% sUA reduction (from baseline)” value [1] was −37.5% and the “Absolute sUA concentration” value [1] was 4.1 mg/dL (2×) and 4.6 mg/dL and 4.5 mg/dL and 4.4 mg/dL and 2.5 mg/dL. For the same compound, the “% sUA reduction (from baseline)” value [2] was −27.5% and −22.7% and −20.0% and −8.3% and −7.0% and −17.5%, the “Absolute sUA concentration” value [2] was 5.0 mg/dL and 5.1 mg/dL and 5.2 mg/dL and 5.5 mg/dL and 5.3 mg/dL and 3.3 mg/dL and the “% sUA reduction (from baseline)” value [3] was −33.3% and −30.3% and −27.7% and −15.0% and −17.5% and −30.0%. For the same compound, the “Absolute sUA concentration” value [3] was 4.6 mg/dL (2×) and 4.7 mg/dL (2×) and 5.1 mg/dL and 2.8 mg/dL, the “% sUA reduction (from baseline)” value [4] was −37.7% and −33.3% and −29.2% and −18.3% and −21.1% and −35.0% and the “Absolute sUA concentration” value [4] was 4.3 mg/dL and 4.4 mg/dL and 4.6 mg/dL and 4.9 mg/dL and 4.5 mg/dL and 2.6 mg/dL. The “Absolute sUA concentration” value (Group 3, 5 mg single oral dose, fed, 48 h post-dose) was 4.7 mg/dL and 4.6 mg/dL (2×) and 5.0 mg/dL and 4.9 mg/dL and 2.9 mg/dL, the “Absolute sUA concentration” value (Group 3, 5 mg single oral dose, fed, 54 h post-dose) was 4.3 mg/dL and 3.5 mg/dL and 4.7 mg/dL and 3.7 mg/dL and 4.5 mg/dL and 2.7 mg/dL and the “Absolute sUA concentration” value (Group 3, 5 mg single oral dose, fed, 60 h post-dose) was 5.0 mg/dL and 4.7 mg/dL and 4.5 mg/dL and 4.8 mg/dL and 4.3 mg/dL and 2.6 mg/dL. The “Absolute sUA concentration” value (Group 3, 5 mg single oral dose, fed, 72 h post-dose) was 5.9 mg/dL and 5.4 mg/dL and 5.2 mg/dL and 5.3 mg/dL and 4.8 mg/dL and 3.0 mg/dL, the “% sUA reduction (from baseline)” value [5] was 0% and the “Absolute sUA concentration” value [5] was 7.8 mg/dL and 7.6 mg/dL and 7.4 mg/dL and 6.2 mg/dL and 5.9 mg/dL and 5.6 mg/dL. For the same compound, the “% sUA reduction (from baseline)” value [6] was −33.3% and −38.2% and −37.8% and −35.5% and −47.5% and −30.4%, the “Absolute sUA concentration” value [6] was 5.2 mg/dL and 4.7 mg/dL and 4.6 mg/dL and 4.0 mg/dL and 3.1 mg/dL and 3.9 mg/dL and the “% sUA reduction (from baseline)” value [7] was −42.3% and −43.4% and −16.2% and −48.4% and −52.5% and −44.6%. The “Absolute sUA concentration” value [7] was 4.5 mg/dL and 4.3 mg/dL and 6.2 mg/dL and 3.2 mg/dL and 2.8 mg/dL and 3.1 mg/dL, the “% sUA reduction (from baseline)” value [8] was −46.2% and −43.4% and −40.5% and −43.5% and −44.1% and −41.1% and the “Absolute sUA concentration” value [8] was 4.2 mg/dL and 4.3 mg/dL and 4.4 mg/dL and 3.5 mg/dL and 3.3 mg/dL (2×). The “% sUA reduction (from baseline)” value [9] was −52.6% and −44.7% and −44.6% and −43.5% and −52.5% and −46.4% and the “Absolute sUA concentration” value [9] was 3.7 mg/dL and 4.2 mg/dL and 4.1 mg/dL and 3.5 mg/dL and 2.8 mg/dL and 3.0 mg/dL.
